This continues a long series; more values of the same kind are listed elsewhere.
How the values were obtained:
[1] = Short-term storage stability of emulsions (drug conc., pH, particle size); format: physicochemical; settings: emulsion, DEA 0.30%, 12 weeks
Description: This Example illustrates the effect of the storage temperature on short-term stability of the formulations of the invention as measured by pH and the size of the droplets. The results of short term stability of cinacalcet at different temperatures and varying TRIS buffer concentrations are presented in Table 8. Cinacalcet was stable in the emulsion formulation over 12 weeks. The pH of the emulsion is lower over time for both placebo and cinacalcet emulsions. The drop in pH is less at lower storage temperature and higher TRIS concentration.
The results of short-term stability of cinacalcet at different temperatures and varying DEA buffer concentrations are presented in Table 9. Cinacalcet was stable in the emulsion formulation over 12 weeks. pH of the emulsion is lower over time for both placebo and cinacalcet emulsion. The drop in pH is less at lower storage temperature and higher DEA concentration.

[2] = Effect of pH and buffer type on emulsion stability (pH, particle size before/after one autoclave cycle); format: physicochemical; settings: after one autoclave cycle, TRIS 5 mM, 2% egg lecithin
Procedure: Tables 6 summarizes the effect of pH and the buffer type on emulsion stability as measured by the particle size. Emulsions were made using 2% egg lecithin, 2.25% glycerin in water for injection. Particle size and pH were measured after one-autoclave cycle. For all emulsions, particle size before autoclaving as represented by D(4,3) was in a range of 0.30 to 0.45 μm. Emulsions were stable at high pH using TRIS and DEA buffer, and at low pH using phosphate buffer over varying concentrations of cinacalcet and soybean oil. Closer to pH 7 using phosphate buffer, increase in particle size was seen after autoclaving.
Particle size data is reported as D(4,3) before and after one autoclaving cycle.

C[C@@H](NCCCc1cccc(C(F)(F)F)c1)c1cccc2ccccc12 [Cinacalcet, N-(1-(R)-(1-naphthyl)ethyl]-3-[3-(trifluoromethyl)phenyl]-1-aminopropane]
pH ([1]; 5° C.): 9.08 | pH ([1]; 40° C.): 8.81 | D(4, 3) ([2]; target cinacalcet 5 mg/mL, SBO conc. 5): 0.31 μm | D(4, 3) ([2]; target cinacalcet 10 mg/mL, SBO conc. 10): 0.39 μm

Source: patent publication US8779004B2, “Stable emulsion formulations” (Amgen, Inc., priority 2006, dated 2014)
